# Measured values published in patent US9289496B2, “Lipid dipeptide and gel” (Nissan Chemical Industries, Ltd., priority 2008, dated 2016).
# For at least one compound, name, drawing or mass did not settle the structure. Residues, ends and D or L forms follow the SMILES beside them.
# Assay: Simultaneous solubilization test of vitamin C derivative and vitamin E
# Type: physicochemical
# Settings: 1 wt %; 1 wt % vitamin E in ethanol : 0.1 wt % vitamin C derivative in phosphate buffer (pH 7.4) 1:99; 80° C., 10 minutes
compound,measurement,value
"CCCCCCCCCCCCCCCC(=O)NCC(=O)N[C@@H](Cc1c[nH]cn1)C(=O)O [Example 4, N-Palmitoyl-Gly-His] (HELM PEPTIDE1{[CCCCCCCCCCCCCCCC(=O)[*:2]].G.H}$$$$V2.0)",Simultaneous solubilization of vitamin E and vitamin C derivative (appearance of mixture),became clear and colorless
